In test [1] the target is T1, Tyrosine-protein kinase JAK2 (Homo sapiens, UniProt O60674).
The target of test [2] is T1, Tyrosine-protein kinase JAK2. This is another data set of the same source.

Amino acid sequences for entries named in this document (tags omitted). A change or cut given only in a name is not applied to a line headed by its entry.
UniProt O60674: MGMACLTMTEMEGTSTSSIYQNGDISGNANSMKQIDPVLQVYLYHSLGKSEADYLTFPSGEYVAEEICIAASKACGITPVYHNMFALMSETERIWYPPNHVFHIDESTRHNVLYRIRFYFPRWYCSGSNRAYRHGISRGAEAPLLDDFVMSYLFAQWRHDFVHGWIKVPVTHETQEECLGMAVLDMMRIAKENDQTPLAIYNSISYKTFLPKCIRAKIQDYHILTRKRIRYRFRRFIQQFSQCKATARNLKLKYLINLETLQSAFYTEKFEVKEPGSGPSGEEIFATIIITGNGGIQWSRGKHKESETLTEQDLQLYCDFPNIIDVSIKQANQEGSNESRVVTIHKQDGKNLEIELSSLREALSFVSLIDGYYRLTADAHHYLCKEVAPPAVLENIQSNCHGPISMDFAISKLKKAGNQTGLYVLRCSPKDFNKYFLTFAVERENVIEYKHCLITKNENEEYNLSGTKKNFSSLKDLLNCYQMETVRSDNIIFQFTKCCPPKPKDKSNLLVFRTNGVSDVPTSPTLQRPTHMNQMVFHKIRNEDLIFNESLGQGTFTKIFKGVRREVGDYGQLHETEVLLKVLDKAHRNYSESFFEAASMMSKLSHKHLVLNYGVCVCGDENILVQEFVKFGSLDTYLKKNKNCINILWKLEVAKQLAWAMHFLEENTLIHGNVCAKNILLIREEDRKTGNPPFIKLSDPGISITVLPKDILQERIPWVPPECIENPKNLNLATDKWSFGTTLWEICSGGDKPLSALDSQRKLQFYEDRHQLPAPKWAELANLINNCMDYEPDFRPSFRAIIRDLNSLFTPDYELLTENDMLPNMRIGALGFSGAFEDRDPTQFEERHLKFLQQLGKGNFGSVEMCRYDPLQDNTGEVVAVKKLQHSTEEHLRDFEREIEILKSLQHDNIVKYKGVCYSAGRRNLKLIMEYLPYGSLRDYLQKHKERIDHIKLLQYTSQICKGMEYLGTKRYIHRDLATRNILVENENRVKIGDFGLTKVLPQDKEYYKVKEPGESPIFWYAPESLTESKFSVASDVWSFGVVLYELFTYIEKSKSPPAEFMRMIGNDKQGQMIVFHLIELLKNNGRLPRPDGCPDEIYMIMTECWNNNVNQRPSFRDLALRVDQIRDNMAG

Structures are written as SMILES.

On to `Cc1cnc(Nc2ccc(OCCCCCCC(=O)NO)cc2)nc1Nc1cccc(S(=O)(=O)NC(C)(C)C)c1`, for which the IC50 in test [1] was 22.4 nM; in test [2], 5.32 nM.
